Results are given in words; binding and its absence hold for the method and conditions named. Some results given as binding are weak or reduced against the parent protein; the word gives no strength.

Assay [1] deals with CD40 antigen (biotin-label-free, AcroBio Cat #: CDO-H5253) (UniProt P25942). Briefly: ELISA on coated CD40 antigen, clone screening.
Another assay addresses Her3 antigen (UniProt P21860). Briefly: ELISA on Her3 antigen, clone screening. (In an ELISA, binding on a coated surface is turned into a signal by an enzyme label.)

B1: DDBK003-14 (Fab, V domains shown)
VH: QVQLVESGAEVKKPGSSVKVSCKASGGTFSASAISWVRQAPGQGLEWMGGIFPILGSANYAQKFQGRVTITADESTSTAYMELSSLRSEDTAVYYCARDLAGYNYGFFGYWGRGTLVTVSS
VL: DIQMTQSPSSVSASVGDRVTITCRASQGINSWLAWYQQKPGRAPKLLIYTASTLQSGVPSRFSGSGSGTDFTLTISSLQPEDFATYYCQQAKSFPLTFGGGTKVEIKR
In the case of B1, the binding entry in assay [1] is given as “binds”.

B2: DDBK003-16 (Fab, V domains shown)
VH: QVQLVESGAEVKKPGSSVKVSCKASGGTFSASAISWVRQAPGQGLEWMGGIFPILGSANYAQKFQGRVTITADESTSTAYMELSSLRSEDTAVYYCARDLAGYNYGFFGYWGRGTLVTVSS
VL: DIQMTQSPSSVSASVGDRVTITCRASQGISSWLAWYQQKPGKAPKLLIYAASSLQSGVPSRFSGSGSGTDFTLTISSLQPEDFATYYCQQANSFPLTFGGGTKLEIKR
As for B2, in assay [1], the binding entry is “binds”.

B3: DDBK004-9 (Fab, V domains shown)
VH: QVQLQQWGAGLLKPSETLSLTCAVYGGSFSGYYWSWIRQPPGKGLEWIGEINHSGSTNYNPSLKSRVTISVETSKNQFSLKLSSVTAADTAVYYCARDKWTWYFDLWGRGTLVTVSS
VL: EIVMTQSPASLAVSLGERATINCKSSQSVLYSPNNRNYLAWYQHKPGQAPKLLISWASTRESGVPDRFSGSGSGTDFTLTISSLQAEDVAVYYCQQYYGPPRTFGGGTKVEIKR
On to B3, for which, in the assay with Her3 antigen, the binding entry was “binds”.

For the origin of these results see patent US20240360436A1.
